Measurements from the supplement of paper PMC10849652.
The list shows a part of the results.

Protein sequences, listed by entry. Tags and fused reporters are not part of them. Lines headed by an entry give the natural chain unless they say otherwise; changes in a name come on top.
UniProt Q9BRV3: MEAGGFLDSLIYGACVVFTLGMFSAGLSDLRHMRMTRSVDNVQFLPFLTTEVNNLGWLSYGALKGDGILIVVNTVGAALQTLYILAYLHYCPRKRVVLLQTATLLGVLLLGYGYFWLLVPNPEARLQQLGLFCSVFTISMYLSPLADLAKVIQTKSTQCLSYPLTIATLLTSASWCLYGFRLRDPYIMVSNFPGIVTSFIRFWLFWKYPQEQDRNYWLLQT
UniProt P14672: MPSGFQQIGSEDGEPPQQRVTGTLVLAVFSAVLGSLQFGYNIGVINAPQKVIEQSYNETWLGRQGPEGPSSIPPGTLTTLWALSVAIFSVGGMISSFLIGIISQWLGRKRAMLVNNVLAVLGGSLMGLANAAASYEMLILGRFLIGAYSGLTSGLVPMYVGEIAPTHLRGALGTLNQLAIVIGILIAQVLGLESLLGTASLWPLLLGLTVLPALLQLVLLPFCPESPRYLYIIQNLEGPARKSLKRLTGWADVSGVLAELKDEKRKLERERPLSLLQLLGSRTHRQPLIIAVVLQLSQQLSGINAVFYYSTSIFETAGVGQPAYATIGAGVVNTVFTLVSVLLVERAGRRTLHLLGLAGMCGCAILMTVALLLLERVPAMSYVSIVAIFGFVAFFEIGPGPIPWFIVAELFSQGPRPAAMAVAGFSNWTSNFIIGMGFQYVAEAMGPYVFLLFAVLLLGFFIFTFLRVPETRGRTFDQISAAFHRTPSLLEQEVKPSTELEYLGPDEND
UniProt A1A5C7: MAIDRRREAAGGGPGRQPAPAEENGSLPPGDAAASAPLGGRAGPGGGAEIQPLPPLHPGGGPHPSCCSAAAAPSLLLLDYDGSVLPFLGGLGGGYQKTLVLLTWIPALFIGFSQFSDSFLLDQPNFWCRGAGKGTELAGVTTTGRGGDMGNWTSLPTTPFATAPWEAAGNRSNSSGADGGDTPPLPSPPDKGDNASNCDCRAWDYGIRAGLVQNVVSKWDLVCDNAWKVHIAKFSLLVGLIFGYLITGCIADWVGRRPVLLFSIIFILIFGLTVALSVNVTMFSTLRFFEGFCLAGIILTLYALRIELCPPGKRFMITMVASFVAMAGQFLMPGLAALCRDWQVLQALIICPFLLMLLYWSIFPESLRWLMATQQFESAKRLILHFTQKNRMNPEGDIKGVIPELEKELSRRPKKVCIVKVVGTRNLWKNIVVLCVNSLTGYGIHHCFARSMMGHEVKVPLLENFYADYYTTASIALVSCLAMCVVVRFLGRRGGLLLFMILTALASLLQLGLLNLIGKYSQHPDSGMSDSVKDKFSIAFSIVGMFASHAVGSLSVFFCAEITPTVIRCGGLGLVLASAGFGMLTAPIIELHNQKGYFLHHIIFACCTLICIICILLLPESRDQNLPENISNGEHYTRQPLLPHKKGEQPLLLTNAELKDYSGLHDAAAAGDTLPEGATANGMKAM
UniProt Q96H78: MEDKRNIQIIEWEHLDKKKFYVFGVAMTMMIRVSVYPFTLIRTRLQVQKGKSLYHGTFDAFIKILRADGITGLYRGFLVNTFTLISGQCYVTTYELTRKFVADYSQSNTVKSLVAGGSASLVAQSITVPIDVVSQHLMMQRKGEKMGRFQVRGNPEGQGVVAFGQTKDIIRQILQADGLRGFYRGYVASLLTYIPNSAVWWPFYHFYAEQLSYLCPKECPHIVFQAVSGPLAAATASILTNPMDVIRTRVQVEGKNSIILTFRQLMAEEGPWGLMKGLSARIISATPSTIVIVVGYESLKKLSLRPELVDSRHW
UniProt Q96T83: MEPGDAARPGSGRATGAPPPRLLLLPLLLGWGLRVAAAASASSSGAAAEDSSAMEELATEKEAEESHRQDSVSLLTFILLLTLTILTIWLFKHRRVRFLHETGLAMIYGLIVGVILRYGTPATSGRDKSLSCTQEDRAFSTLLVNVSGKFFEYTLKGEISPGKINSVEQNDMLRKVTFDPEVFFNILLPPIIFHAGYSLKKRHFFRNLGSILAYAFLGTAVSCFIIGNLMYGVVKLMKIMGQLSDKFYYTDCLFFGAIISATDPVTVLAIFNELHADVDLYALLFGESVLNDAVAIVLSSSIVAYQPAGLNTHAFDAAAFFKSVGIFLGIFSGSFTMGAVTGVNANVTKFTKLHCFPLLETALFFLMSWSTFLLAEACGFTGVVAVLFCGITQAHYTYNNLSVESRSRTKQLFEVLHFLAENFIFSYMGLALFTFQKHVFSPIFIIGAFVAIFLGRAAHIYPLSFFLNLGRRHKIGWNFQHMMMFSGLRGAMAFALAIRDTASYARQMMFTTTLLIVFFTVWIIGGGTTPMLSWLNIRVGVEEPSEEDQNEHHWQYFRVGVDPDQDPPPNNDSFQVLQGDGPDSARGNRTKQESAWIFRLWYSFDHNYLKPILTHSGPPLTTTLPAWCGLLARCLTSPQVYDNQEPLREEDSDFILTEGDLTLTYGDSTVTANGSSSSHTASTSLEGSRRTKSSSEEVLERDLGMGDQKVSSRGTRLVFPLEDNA
UniProt Q86WA9: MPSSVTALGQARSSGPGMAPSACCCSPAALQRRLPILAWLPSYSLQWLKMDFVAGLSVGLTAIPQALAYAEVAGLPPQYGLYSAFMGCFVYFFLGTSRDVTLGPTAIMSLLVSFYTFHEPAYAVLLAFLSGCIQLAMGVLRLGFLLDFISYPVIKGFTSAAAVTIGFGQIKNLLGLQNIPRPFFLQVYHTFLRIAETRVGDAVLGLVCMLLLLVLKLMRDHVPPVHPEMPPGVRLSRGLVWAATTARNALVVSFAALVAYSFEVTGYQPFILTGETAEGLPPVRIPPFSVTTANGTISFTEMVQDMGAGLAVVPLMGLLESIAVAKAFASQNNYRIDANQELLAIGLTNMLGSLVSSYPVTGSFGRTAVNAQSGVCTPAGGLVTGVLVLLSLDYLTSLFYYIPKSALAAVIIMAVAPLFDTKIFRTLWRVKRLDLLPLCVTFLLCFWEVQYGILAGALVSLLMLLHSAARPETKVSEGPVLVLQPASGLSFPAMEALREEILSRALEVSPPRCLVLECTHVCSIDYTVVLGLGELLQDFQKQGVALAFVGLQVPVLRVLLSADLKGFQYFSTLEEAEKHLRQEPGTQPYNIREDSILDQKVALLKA
UniProt Q96NT5: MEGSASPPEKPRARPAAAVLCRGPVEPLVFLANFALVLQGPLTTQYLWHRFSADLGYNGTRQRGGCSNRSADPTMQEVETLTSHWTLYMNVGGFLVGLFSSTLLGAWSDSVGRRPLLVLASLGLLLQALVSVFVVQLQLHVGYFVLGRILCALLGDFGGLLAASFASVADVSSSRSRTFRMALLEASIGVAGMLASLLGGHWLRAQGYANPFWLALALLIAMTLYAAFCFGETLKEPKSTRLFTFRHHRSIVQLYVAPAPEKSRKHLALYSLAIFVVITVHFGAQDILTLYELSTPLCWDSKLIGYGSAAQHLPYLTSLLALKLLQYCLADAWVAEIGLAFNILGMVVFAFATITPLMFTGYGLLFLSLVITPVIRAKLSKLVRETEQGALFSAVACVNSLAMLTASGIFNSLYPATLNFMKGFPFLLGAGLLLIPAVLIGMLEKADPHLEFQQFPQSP
UniProt Q8IZM9: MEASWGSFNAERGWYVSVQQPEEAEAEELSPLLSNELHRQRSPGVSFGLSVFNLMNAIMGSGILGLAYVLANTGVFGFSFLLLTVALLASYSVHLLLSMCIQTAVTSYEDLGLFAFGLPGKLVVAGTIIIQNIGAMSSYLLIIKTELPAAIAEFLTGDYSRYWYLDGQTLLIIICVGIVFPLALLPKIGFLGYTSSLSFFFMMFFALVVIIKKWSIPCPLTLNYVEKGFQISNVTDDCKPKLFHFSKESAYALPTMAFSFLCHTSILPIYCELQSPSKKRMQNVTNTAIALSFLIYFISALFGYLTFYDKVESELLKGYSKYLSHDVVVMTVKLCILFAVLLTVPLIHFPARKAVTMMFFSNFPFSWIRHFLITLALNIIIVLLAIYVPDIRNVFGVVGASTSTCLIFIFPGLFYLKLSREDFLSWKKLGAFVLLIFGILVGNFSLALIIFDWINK
UniProt Q96A46: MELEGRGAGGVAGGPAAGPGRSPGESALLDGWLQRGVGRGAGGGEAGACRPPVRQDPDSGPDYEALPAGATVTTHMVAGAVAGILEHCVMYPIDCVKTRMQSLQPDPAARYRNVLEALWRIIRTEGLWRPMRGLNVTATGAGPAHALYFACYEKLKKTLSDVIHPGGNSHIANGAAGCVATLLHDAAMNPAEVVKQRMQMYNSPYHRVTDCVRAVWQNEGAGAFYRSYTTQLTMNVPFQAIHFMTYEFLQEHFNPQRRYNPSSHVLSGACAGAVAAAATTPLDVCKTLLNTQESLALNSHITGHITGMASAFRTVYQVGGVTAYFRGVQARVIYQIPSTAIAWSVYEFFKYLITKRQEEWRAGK
UniProt Q13433: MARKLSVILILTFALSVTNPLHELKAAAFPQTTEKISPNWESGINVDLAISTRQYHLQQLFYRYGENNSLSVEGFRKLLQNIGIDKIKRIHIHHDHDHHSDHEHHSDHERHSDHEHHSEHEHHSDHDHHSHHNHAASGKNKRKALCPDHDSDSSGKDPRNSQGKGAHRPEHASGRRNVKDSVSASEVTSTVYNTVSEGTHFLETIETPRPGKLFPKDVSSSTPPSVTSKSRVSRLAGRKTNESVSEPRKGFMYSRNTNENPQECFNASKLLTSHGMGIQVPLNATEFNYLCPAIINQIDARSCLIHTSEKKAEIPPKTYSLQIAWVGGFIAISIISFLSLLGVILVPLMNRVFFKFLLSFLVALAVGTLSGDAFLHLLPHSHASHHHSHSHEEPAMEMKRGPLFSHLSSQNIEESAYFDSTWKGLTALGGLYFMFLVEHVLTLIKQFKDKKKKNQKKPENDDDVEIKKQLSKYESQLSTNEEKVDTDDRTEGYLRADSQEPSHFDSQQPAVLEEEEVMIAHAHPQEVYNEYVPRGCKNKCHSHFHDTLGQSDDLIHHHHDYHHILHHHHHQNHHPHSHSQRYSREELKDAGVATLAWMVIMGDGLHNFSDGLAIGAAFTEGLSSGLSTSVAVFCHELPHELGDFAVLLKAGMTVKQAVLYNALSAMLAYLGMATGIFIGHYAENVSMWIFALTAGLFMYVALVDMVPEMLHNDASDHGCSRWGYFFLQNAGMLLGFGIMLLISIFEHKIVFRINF
UniProt Q9BZD2: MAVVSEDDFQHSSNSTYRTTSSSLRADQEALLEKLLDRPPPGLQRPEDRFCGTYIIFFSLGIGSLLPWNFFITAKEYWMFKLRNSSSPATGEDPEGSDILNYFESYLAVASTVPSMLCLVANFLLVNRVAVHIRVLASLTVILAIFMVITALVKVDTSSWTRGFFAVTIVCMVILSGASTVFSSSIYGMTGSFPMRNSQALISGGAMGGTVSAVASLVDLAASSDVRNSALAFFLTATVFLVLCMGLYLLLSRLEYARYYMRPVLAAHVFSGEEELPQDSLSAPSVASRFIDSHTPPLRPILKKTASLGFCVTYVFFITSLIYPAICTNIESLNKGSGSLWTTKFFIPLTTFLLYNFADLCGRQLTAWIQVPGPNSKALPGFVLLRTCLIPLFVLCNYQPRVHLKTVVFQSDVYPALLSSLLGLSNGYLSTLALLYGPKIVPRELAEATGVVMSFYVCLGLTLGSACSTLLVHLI
UniProt Q8WWI5: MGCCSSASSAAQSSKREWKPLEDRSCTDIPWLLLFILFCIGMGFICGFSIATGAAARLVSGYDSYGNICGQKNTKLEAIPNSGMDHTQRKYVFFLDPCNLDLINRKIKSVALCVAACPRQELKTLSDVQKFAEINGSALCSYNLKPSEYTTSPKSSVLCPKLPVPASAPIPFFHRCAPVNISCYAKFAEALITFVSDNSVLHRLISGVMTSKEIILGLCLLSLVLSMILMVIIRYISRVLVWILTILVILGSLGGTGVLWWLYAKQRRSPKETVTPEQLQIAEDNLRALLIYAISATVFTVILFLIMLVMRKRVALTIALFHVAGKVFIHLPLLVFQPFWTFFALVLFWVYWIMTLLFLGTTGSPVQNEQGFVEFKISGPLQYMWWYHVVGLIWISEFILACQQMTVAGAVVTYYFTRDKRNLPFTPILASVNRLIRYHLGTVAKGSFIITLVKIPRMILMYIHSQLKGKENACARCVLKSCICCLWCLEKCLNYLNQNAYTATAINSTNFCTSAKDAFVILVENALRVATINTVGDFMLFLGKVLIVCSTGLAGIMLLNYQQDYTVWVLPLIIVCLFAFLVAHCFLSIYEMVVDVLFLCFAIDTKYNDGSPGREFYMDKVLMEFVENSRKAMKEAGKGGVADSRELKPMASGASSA
UniProt P16260: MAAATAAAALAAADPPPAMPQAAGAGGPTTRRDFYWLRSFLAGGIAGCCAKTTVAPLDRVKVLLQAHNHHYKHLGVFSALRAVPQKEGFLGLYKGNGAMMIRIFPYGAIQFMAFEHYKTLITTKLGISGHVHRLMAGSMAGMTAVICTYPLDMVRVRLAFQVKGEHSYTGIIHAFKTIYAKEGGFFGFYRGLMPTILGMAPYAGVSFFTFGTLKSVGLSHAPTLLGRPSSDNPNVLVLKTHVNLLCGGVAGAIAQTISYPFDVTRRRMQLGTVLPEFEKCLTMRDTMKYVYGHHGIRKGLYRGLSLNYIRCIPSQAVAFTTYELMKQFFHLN

What was measured:
Experiment in all cases: log2 fold change, soluble protein after heating vs DMSO (PISA); higher = thermal stabilisation; K562 lysate, 10 uM; active = over 0.2 and 3.5 SD of the protein, either way, in both replicates (recomputed)
dasatinib = compound: Cc1nc(Nc2ncc(C(=O)Nc3c(C)cccc3Cl)s2)cc(N2CCN(CCO)CC2)n1 [dasatinib]
Summary of the method: (§1)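 Soluble protein was defined as the supernatant remaining after 21,000xg for 90 min, following pooling of heated aliquots and adjustment to 0.5% NP-40 at 4°C. Before that, crude K562 extract at 1 mg/mL protein in PBS pH 7.4 with 1 mM MgCl2 was treated with 10 μM compound for 30 min and heated for 3 min across 48°C-58°C. Quantification used TMTpro 16plex LC-MS/MS with channel sums equalised, and values are log-two fold changes in thermal stability relative to solvent controls from duplicates.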

[1] = compound: Cn1cc(-c2ccc3c(c2)CCN3C(=O)Cc2cccc(C(F)(F)F)c2)c2c(N)ncnc21
Summary of the method: as §1

quisinostat = compound: Cn1cc(CNCC2CCN(c3ncc(C(=O)NO)cn3)CC2)c2ccccc21 [quisinostat]
Summary of the method: as §1

[2] = compound: NC(=O)Nc1cc(-c2cccc(F)c2)sc1C(=O)N[C@H]1CCCNC1
Summary of the method: as §1

[3] = compound: NC(=O)c1cnc(N[C@@H]2CCCC[C@@H]2N)nc1Nc1cccc(-n2nccn2)c1
Summary of the method: as §1

[4] = compound: NC1(c2ccc(-c3nc4ccn5c(=O)[nH]nc5c4cc3-c3ccccc3)cc2)CCC1
Summary of the method: as §1

vorinostat = compound: O=C(CCCCCCC(=O)Nc1ccccc1)NO [vorinostat]
Summary of the method: as §1

silmitasertib = compound: O=C(O)c1ccc2c(c1)nc(Nc1cccc(Cl)c1)c1ccncc12 [silmitasertib]
Summary of the method: as §1

[5] = compound: O=C1NC(=O)C(c2cnc3ccccn23)=C1c1cn2c3c(cc(F)cc13)CN(C(=O)N1CCCCC1)CC2
Summary of the method: as §1

[6] = compound: NCC(=O)Nc1ccc(-n2nc(C(F)(F)F)cc2-c2ccc3c(ccc4ccccc43)c2)cc1
Summary of the method: as §1

entospletinib = compound: c1cn2cc(-c3ccc4cn[nH]c4c3)nc(Nc3ccc(N4CCOCC4)cc3)c2n1 [entospletinib]
Summary of the method: as §1

nilotinib = compound: Cc1cn(-c2cc(NC(=O)c3ccc(C)c(Nc4nccc(-c5cccnc5)n4)c3)cc(C(F)(F)F)c2)cn1 [nilotinib]
Summary of the method: as §1

[7] = compound: Cc1nc(Nc2n[nH]c3c2CN(C(=O)N[C@H](CN(C)C)c2ccccc2)C3(C)C)c2sccc2n1
Summary of the method: as §1

[8] = compound: Cc1ncc(-c2ccnc(Nc3ccc(S(C)(=O)=O)cc3)n2)n1C(C)C
Summary of the method: as §1

tipifarnib = compound: Cn1cncc1[C@@](N)(c1ccc(Cl)cc1)c1ccc2c(c1)c(-c1cccc(Cl)c1)cc(=O)n2C [tipifarnib]
Summary of the method: as §1

Measured: log2 fold change

SLC50A1 (UniProt Q9BRV3)
inactive: dasatinib 0.035 | [1] -0.168 | quisinostat -0.147 | [2] -0.039 | [3] 0.099 | [4] -0.066 | vorinostat 0.158 | silmitasertib -0.139 | [5] -0.042

SLC2A4 (UniProt P14672)
inactive: dasatinib 0.041 | [1] -0.067 | quisinostat -0.066 | [2] 0.062 | [3] -0.039 | [4] 0.078 | [6] -0.03 | vorinostat 0.131 | silmitasertib -0.144 | [5] -0.042 | entospletinib -0.003

SLC22A23 (UniProt A1A5C7)
inactive: dasatinib -0.017 | [1] 0.001 | quisinostat 0.056 | [2] 0.002 | [3] 0.021 | [4] 0.009 | [6] 0.07 | vorinostat 0.132 | silmitasertib 0.029 | [5] -0.082 | entospletinib 0.011

SLC25A44 (UniProt Q96H78)
inactive: [1] -0.162 | quisinostat -0.025 | [2] 0.044 | [3] 0.005 | [4] 0.363 | [6] 0.13 | vorinostat 0.025 | silmitasertib -0.02 | [5] -0.056 | entospletinib -0.026
active: dasatinib -0.539

SLC9A7 (UniProt Q96T83)
inactive: quisinostat -0.251 | [2] -0.123 | [3] 0.139 | [5] 0.105

SLC26A11 (UniProt Q86WA9)
inactive: quisinostat -0.134 | [2] -0.132 | [4] -0.321 | vorinostat 0.077 | silmitasertib 0.128 | [5] -0.029

SLC23A2 (UniProt Q9UGH3)
inactive: dasatinib -0.001 | [1] -0.014 | quisinostat 0.153 | [2] 0.064 | [3] 0.033 | [4] -0.008 | vorinostat 0.052 | silmitasertib 0.039 | [5] 0.068 | entospletinib 0.018

SLC41A3 isoform 9 (UniProt Q96GZ6)
inactive: nilotinib -0.019 | [7] -0.005 | [8] 0.039 | tipifarnib -0.053 | [6] -0.021 | entospletinib -0.1

SLC25A35 (UniProt Q3KQZ1)
inactive: quisinostat 0.051 | [2] 0.08 | [5] 0.128 | entospletinib 0.003

Looked up one by one from the list above, two records:
SLC25A35 (UniProt Q3KQZ1)
inactive: quisinostat 0.051 | [2] 0.08 | [5] 0.128 | entospletinib 0.003

SLC9A7 (UniProt Q96T83)
inactive: quisinostat -0.251 | [2] -0.123 | [3] 0.139 | [5] 0.105

The listing continues:

SLC46A1 (UniProt Q96NT5)
inactive: dasatinib 0.091 | [1] -0.023 | [3] -0.075 | [4] -0.02 | vorinostat 0.1 | silmitasertib -0.051

SLC43A3 (UniProt Q8NBI5)
inactive: [3] -0.136

SLC38A6 isoform 2 (UniProt Q8IZM9)
inactive: [4] 0.2 | [6] 0.016 | vorinostat 0.34 | silmitasertib -0.115

SLC25A28 (UniProt Q96A46)
inactive: quisinostat -0.1 | [2] 0.042 | [6] 0.11 | [5] -0.098 | entospletinib -0.112

SLC39A6 (UniProt Q13433)
inactive: nilotinib 0.012 | [7] 0.018 | [8] 0.038 | quisinostat 0.082 | tipifarnib 0.019 | [2] 0 | [3] -0.042 | [4] -0.009 | vorinostat 0.14 | silmitasertib -0.019 | [5] -0.009

SLC29A3 (UniProt Q9BZD2)
inactive: nilotinib 0.075 | [7] -0.015 | [8] 0.025 | quisinostat -0.129 | tipifarnib 0.098 | [2] -0.061 | [3] -0.062 | [4] -0.012 | vorinostat 0.068 | silmitasertib -0.054 | [5] -0.03

SLC2A13 (UniProt Q96QE2)
inactive: dasatinib 0.04 | [1] -0.227 | [4] 0.048 | vorinostat 0.157 | silmitasertib -0.074 | entospletinib 0.096

SLC44A1 (UniProt Q8WWI5)
inactive: dasatinib 0.097 | [1] -0.05

SLC25A16 (UniProt P16260)
inactive: nilotinib 0.245 | [7] -0.043 | [8] 0.056 | quisinostat -0.001 | tipifarnib 0.171 | [2] 0.039 | [4] 0.015 | [6] 0.122 | vorinostat -0.127 | silmitasertib 0.097 | [5] 0
